Among the data in PubChem BioAssay AID493014 (National Center for Advancing Translational Sciences (NCATS), 2011) are AC50 values, retold here.

Structures are written as SMILES. The list shows a part of the results. The main result of the screen is listed elsewhere. These columns were measured beside it and carry no call. Most of these compounds were active or inconclusive in the main read-out, so they are no random draw. Words in brackets tell the shape of the fitted curve; partial curves, single points and poor fits give uncertain potencies.

This test is described as follows: qHTS Assay to Find Inhibitors of Chronic Active B-Cell Receptor Signaling. The conditions noted are these: ABC-DLBCL IkBa-CBG/CBR reporter, luminescence ratio (green luciferase fused to IkBa over red control in TMD8 lymphoma cells), 4 h. Summed up:
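Concentration-response series (up to 46 uM) were applied to TMD8 dual-reporter cells for 4 h at 37C with doxycycline. Green/red ratio, after filter-overlap correction, defined %Activity; red signal alone was normalised to basal cells and zero luminescence.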

[1] abbreviates: measured here: CBR red luminescence, cell number.

In general, AC50 refers to the midpoint of the concentration-response curve, whichever way the signal moves. On to `Clc1ccc(Cc2nnc(-c3ccccc3Br)o2)cc1`, for which the AC50 under setting [1] is 14.6 µM [rising, single point].

Consider `C/C(=N\NC(=O)c1ccccc1)c1ccc(N2CCCCC2)cc1`, for which, under setting [1], the AC50 is 4.61 µM [falling, single point].

For `COc1ccc(CCNC(=O)CSc2nc3ccccc3o2)cc1OC`, the AC50 under setting [1] was 16.4 µM [rising, single point].

`COc1cc(C)c(C)cc1S(=O)(=O)N1CCCc2ccccc21`: the AC50 under setting [1] was 3.55 µM [rising, full curve, poor fit].

`COc1ccc(NC(=O)c2oc3ccc(S(=O)(=O)N4CCOCC4)cc3c2C)c(OC)c1`: the AC50 under setting [1] is 0.447 µM [falling, full curve, poor fit].

Consider `Cc1ccc(-c2csc(NC(=O)C3CC(=O)N(Cc4ccco4)C3)n2)cc1` (stereo not drawn), for which the AC50 under setting [1] is 8.91 µM [falling, partial curve].

Take `C/C(=N\NC(=O)Cc1csc(N2CCOCC2)n1)c1ccc(Cl)c(Cl)c1`: the AC50 under setting [1] is 3.98 µM [falling, partial curve, poor fit].

Consider `Cc1ccc(-n2[nH]c(C)c(/C=N/n3c(C)nc4ccccc4c3=O)c2=O)cc1`, for which the AC50 under setting [1] is 14.1 µM [falling, partial curve].

For `CCC(=O)N1c2ccccc2NC2=C(C(=O)CCC2)C1c1ccc(N(C)C)cc1` (stereo not drawn), the AC50 under setting [1] was 12.6 µM [rising, single point].

As to `Cc1ccc(S(=O)(=O)N2CCN(C(=O)Cc3sc(C)nc3-c3ccc(F)cc3)CC2)c(C)c1`, the AC50 under setting [1] was 8.2 µM [falling, partial curve, poor fit].

As for `Cc1nc2ccc(NC(=O)c3ccc([N+](=O)[O-])cc3)cc2[nH]1`, the AC50 under setting [1] was 1 µM [rising, full curve, poor fit].

Take `COc1ccccc1N1CCN(C(=O)CC(NC(=O)c2ccccc2Cl)c2ccccc2)CC1` (stereo not drawn): under setting [1], the AC50 was 1.46 µM [rising, full curve, poor fit].

For the compound `O=C1CSc2ccc(C(=O)Nc3cccc(S(=O)(=O)Nc4ccc(Br)cc4)c3)cc2N1`, the AC50 is, setting by setting: under setting [1], 15.8 µM [falling, partial curve]; (measured here: IkBa-CBG green luminescence) 28.2 µM [rising, partial curve, poor fit].

With `CC(=O)CCC(=O)c1ccc2ccccc2c1`, the AC50 under setting [1] is 2.31 µM [rising, full curve, poor fit].

In the case of `CS(=O)c1nc(-c2ccc(Br)cc2)cc(-c2ccccc2)c1C#N` (stereo not drawn), the AC50 under setting [1] was 0.651 µM [falling, full curve].

`O=C(Nc1ccccc1)n1ccc(-c2ccc(-n3ccnc3)cc2)n1`: under setting [1], the AC50 was 15.8 µM [falling, partial curve, poor fit].

As to `O=C(Nc1ccccc1F)C(=O)Nc1cccc2ccccc12`, the AC50 under setting [1] was 1.41 µM [falling, full curve].
